The experiment has as its system male TH mice. Nature of the experiment: Micro-CT bone mineral density, bone mineral content and skull thickness in drug-treated male TH mice. It counts as in vivo, mouse. Particulars: 4-week-old male TH mice, oral 5 mg/kg once a day for 4 weeks. Here is the method:
Control mice (C57BL/6) and TH mice were freely fed, and their bone mineral densities were measured every week from 4 week age to 20 week age after delectation. The mice were anesthetized with Avertin (2,2,2-tribromoethanol) to keep them alive while measuring their bone mineral densities. […] Thereafter, the resulting images were reformed using Microview (GE Healthcare, USA) to obtain the final bone mineral density (BMD) and the final bone mineral content (BMC) (see FIG. 2).
Control mice (C57BL/6) and TH mice were fed freely. […] Thereafter, the bone thicknesses and the bone mineral densities of the extracted skulls were measured as described in Example 2, using a tomographic apparatus (micro-CT) for animals.
8-week-old male TH mice were orally administered with parathyroid hormone (hPTH(1-34), Sigma, USA), which is started to be used as an osteoporosis medicine increasing the bone mineral content, with a concentration of 50 μg/kg, once a day for 4 weeks.

On to `NCCCC(O)(P(=O)(O)O)P(=O)(O)O` [alendronate], for which the “bone mineral densities in the femurs” value (vs 8-week-old TH mice treated with vehicle only (FIG. 15)) was “significantly recovered”. In addition, the “bone mineral densities of the skulls” value (vs TH mice vehicle (FIG. 18)) is “significantly recovered”.
